In patent publication US20150224182A1:
No constants are given. Whether binding was seen depends on the method and setting. A result given as binding can be weak or reduced; the word gives no strength. Values belong to the binder of their own block, whether it stands above or below them.

What was measured:
HLA-B*0702 (human) [1] = experiment: HLA-B7 eluate MS; AML1; 2 means 1-5 copies/cell
HLA-B*0702 (human) [2] = experiment: HLA-B7 eluate MS; JY; 4 means >25 copies/cell; details: remark: other sources report otherwise
HLA-B*0702 (human) [3] = experiment: HLA-B7 eluate MS; CLL2; 2 means 1-5 copies/cell; details: remark: other sources report otherwise
HLA-B*0702 (human) [4] = experiment: HLA-B7 eluate MS; CLL4; 2 means 1-5 copies/cell; details: remark: other sources report otherwise
HLA-B*0702 (human) [5] = experiment: HLA-B7 eluate MS; HCL1; 2 means 1-5 copies/cell; details: remark: other sources report otherwise
HLA-B*0702 (human) [6] = experiment: HLA-B7 eluate MS; AML1; 3 means 6-25 copies/cell; details: remark: other sources report otherwise
HLA-A*0201 (human) [7] = experiment: MS of HLA-A*0201 (BB7.2) eluate; cultured melanocytes; +++ means 50-500 copies/cell; details: remark: other sources report otherwise
HLA-A*0201 (human) [8] = experiment: HLA-A2 eluate MS; MCL; 1 means <1 copy/cell; details: remark: other sources report otherwise
HLA-A*0201 (human) [9] = experiment: HLA-A2 eluate MS; AML1; 1 means <1 copy/cell; details: remark: other sources report otherwise
HLA-A*0201 (human) [10] = experiment: HLA-A2 eluate MS; CLL3; 1 means <1 copy/cell; details: remark: other sources report otherwise
HLA-A*0201 (human) [11] = experiment: HLA-A2 eluate MS; CLL4; 1 means <1 copy/cell; details: remark: other sources report otherwise
HLA-A*0201 (human) [12] = experiment: HLA-A2 eluate MS; JY; 4 means >25 copies/cell; details: remark: other sources report otherwise
HLA-A*0201 (human) [13] = experiment: HLA-A2 eluate MS; CLL1; 2 means 1-5 copies/cell; details: remark: other sources report otherwise
HLA-A*0201 (human) [14] = experiment: HLA-A2 eluate MS; CLL2; 2 means 1-5 copies/cell; details: remark: other sources report otherwise
HLA-A*0201 (human) [15] = experiment: HLA-A2 eluate MS; B Cell; 2 means 1-5 copies/cell; details: remark: other sources report otherwise
HLA-A*0201 (human) [16] = experiment: HLA-A2 eluate MS; T Cell; 2 means 1-5 copies/cell; details: remark: other sources report otherwise
HLA-B*0702 (human) [17] = experiment: HLA-B7 eluate MS; ALL1; 3 means 6-25 copies/cell
HLA-B*0702 (human) [18] = experiment: HLA-B7 eluate MS; T Cell; 2 means 1-5 copies/cell
HLA-B*0702 (human) [19] = experiment: HLA-B7 eluate MS; HCL1; 1 means <1 copy/cell; details: remark: other sources report otherwise
HLA-B*0702 (human) [20] = experiment: HLA-B7 eluate MS; JY; 3 means 6-25 copies/cell; details: remark: other sources report otherwise
HLA-B*0702 (human) [21] = experiment: HLA-B7 eluate MS; ALL1; 4 means >25 copies/cell; details: remark: other sources report otherwise
HLA-B*0702 (human) [22] = experiment: HLA-B7 eluate MS; AML1; 2 means 1-5 copies/cell; details: remark: other sources report otherwise
HLA-B*0702 (human) [23] = experiment: HLA-B7 eluate MS; T Cell; 4 means >25 copies/cell; details: remark: other sources report otherwise
HLA-B*0702 (human) [24] = experiment: HLA-B7 eluate MS; B Cell; 3 means 6-25 copies/cell; details: remark: other sources report otherwise
HLA-A*0201 (human) [25] = experiment: MHC binding affinity, method and allele not printed there; details: remark: other sources report otherwise
HLA-B*0702 (human) [26] = experiment: HLA-B7 eluate MS; AML1; 4 means >25 copies/cell; details: remark: other sources report otherwise
HLA-A*0201 (human) [27] = experiment: HLA-A2 eluate MS; CLL1; 1 means <1 copy/cell; details: remark: other sources report otherwise
HLA-A*0201 (human) [28] = experiment: HLA-A2 eluate MS; CLL2; 1 means <1 copy/cell; details: remark: other sources report otherwise
HLA-A*0201 (human) [29] = experiment: HLA-A2 eluate MS; JY; 2 means 1-5 copies/cell; details: remark: other sources report otherwise
HLA-B*0702 (human) [30] = experiment: HLA-B7 eluate MS; AML1; 1 means <1 copy/cell; details: remark: other sources report otherwise
HLA-B*0702 (human) [31] = experiment: HLA-B7 eluate MS; CLL2; 3 means 6-25 copies/cell; details: remark: other sources report otherwise
HLA-B*0702 (human) [32] = experiment: HLA-B7 eluate MS; HCL1; 3 means 6-25 copies/cell; details: remark: other sources report otherwise

- binding (HLA-B*0702 (human) [1]): binds
B1: ATXN2 phosphopeptide RPRsPRQNSI (peptide)
peptide: RPRSPRQNSI
modifications: phosphoserine at 4

- binding (HLA-B*0702 (human) [2]): binds
- binding (HLA-B*0702 (human) [3]): binds
- binding (HLA-B*0702 (human) [4]): binds
- binding (HLA-B*0702 (human) [5]): binds
- binding (HLA-B*0702 (human) [6]): binds
B2: MAP3K11 phosphopeptide TPRsPPLGLI (peptide)
peptide: TPRSPPLGLI
modifications: here or on the partner: phosphoserine at 4

- binding (HLA-A*0201 (human) [7]): binds
B3: SRp46 splicing factor phosphopeptide SMpTRSPPRV (peptide)
peptide: SMTRSPPRV
modifications: here or on the partner: phosphothreonine at 3

- binding (HLA-A*0201 (human) [8]): binds
- binding (HLA-A*0201 (human) [9]): binds
- binding (HLA-A*0201 (human) [10]): binds
- binding (HLA-A*0201 (human) [11]): binds
- binding (HLA-A*0201 (human) [12]): binds
- binding (HLA-A*0201 (human) [13]): binds
- binding (HLA-A*0201 (human) [14]): binds
- binding (HLA-A*0201 (human) [15]): binds
- binding (HLA-A*0201 (human) [16]): binds
B4: LSP1 phosphopeptide RQAsIELPSM (peptide)
peptide: RQASIELPSM
modifications: here or on the partner: phosphoserine at 4

- binding (HLA-B*0702 (human) [17]): binds
- binding (HLA-B*0702 (human) [18]): binds
B5: BCL11A phosphopeptide KPPsPSPIEM (peptide)
peptide: KPPSPSPIEM
modifications: phosphoserine at 4

- binding (HLA-B*0702 (human) [19]): binds
- binding (HLA-B*0702 (human) [20]): binds
- binding (HLA-B*0702 (human) [21]): binds
- binding (HLA-B*0702 (human) [22]): binds
- binding (HLA-B*0702 (human) [3]): binds
- binding (HLA-B*0702 (human) [23]): binds
- binding (HLA-B*0702 (human) [24]): binds
B6: ARID1B phosphopeptide RPSsLPDL (peptide)
peptide: RPSSLPDL
modifications: here or on the partner: phosphoserine at 4

- binding (HLA-A*0201 (human) [8]): binds
- binding (HLA-A*0201 (human) [25]): binds
B7: Tensin-3 (TNS3) phosphopeptide VMIGsPKKV (peptide)
peptide: VMIGSPKKV
modifications: here or on the partner: phosphoserine at 5

- binding (HLA-B*0702 (human) [26]): binds
B8: GPSM3 phosphopeptide GPRSASLLsL (peptide)
peptide: GPRSASLLSL
modifications: here or on the partner: phosphoserine at 9

- binding (HLA-B*0702 (human) [22]): binds
B9: MLL phosphopeptide RVRsPTRSP (peptide)
peptide: RVRSPTRSP
modifications: here or on the partner: phosphoserine at 4

- binding (HLA-A*0201 (human) [8]): binds
- binding (HLA-A*0201 (human) [27]): binds
- binding (HLA-A*0201 (human) [28]): binds
- binding (HLA-A*0201 (human) [7]): binds
B10: IRS2 phosphopeptide RVApSPTSGV (peptide)
peptide: RVASPTSGV
modifications: here or on the partner: phosphoserine at 4 (Ser1100 of IRS-2)

- binding (HLA-A*0201 (human) [10]): binds
- binding (HLA-A*0201 (human) [11]): binds
- binding (HLA-A*0201 (human) [29]): binds
- binding (HLA-A*0201 (human) [13]): binds
- binding (HLA-A*0201 (human) [14]): binds
B11: LSP1 phosphopeptide KLIDRTEsL (peptide)
peptide: KLIDRTESL
modifications: here or on the partner: phosphoserine at 8

- binding (HLA-A*0201 (human) [10]): binds
B12: SRSF8 phosphopeptide SMTRsPPRV (peptide)
peptide: SMTRSPPRV
modifications: here or on the partner: phosphoserine at 5

- binding (HLA-B*0702 (human) [30]): binds
B13: SIK1 phosphopeptide RPRPVsPSSL (peptide)
peptide: RPRPVSPSSL
modifications: here or on the partner: phosphoserine at 6

- binding (HLA-B*0702 (human) [2]): binds
- binding (HLA-B*0702 (human) [4]): binds
- binding (HLA-B*0702 (human) [6]): binds
- binding (HLA-B*0702 (human) [31]): binds
- binding (HLA-B*0702 (human) [32]): binds
B14: MAP3K11 phosphopeptide TPRsPPLGL (peptide)
peptide: TPRSPPLGL
modifications: here or on the partner: phosphoserine at 4
